Data from PMC10638239.
No constants are given. Whether binding was seen depends on the method and setting. Binding seen in cells or lysates may run through a third protein. Some results given as binding are weak or reduced against the parent protein; the word gives no strength.

Protein sequences, listed by entry. Tags and fused reporters are not part of them. Residues count along the entry.
UniProt Q9NPG3, residues 1-175: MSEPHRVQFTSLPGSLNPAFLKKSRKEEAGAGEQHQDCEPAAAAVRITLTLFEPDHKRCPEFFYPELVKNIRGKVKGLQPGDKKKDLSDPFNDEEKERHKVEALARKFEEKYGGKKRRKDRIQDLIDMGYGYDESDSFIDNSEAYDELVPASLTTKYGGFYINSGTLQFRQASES

Target: His-MBP-UBN1^1-175 (UniProt Q9NPG3)
Assay: pull-down; purified His-MBP fusion incubated with 1.5 mg whole cell lysate of Raji or DT40 ψV KO in 1X PBS, 6 h at 4 °C; Ni-NTA beads; washes with 200 mM NaCl, 50 mM imidazole; western blot with anti-AID mAb or anti-UBN1 pAb; only the target purified

B1: Activation-induced cytidine deaminase (AID), endogenous in DT40 ψV KO cells (enzyme, UniProt E1BVI0 1-198)
chain: MDSLLMKRKLFLYNFKNLRWAKGRRETYLCYVVKRRDSATSCSLDFGYLRNKMGCHVEVLFLRYISAWDLDPGRCYRITWFTSWSPCYDCARHVADFLRAYPNLTLRIFTARLYFCEDRKAEPEGLRRLHRAGAQIAIMTFKDFFYCWNTFVENREKTFKAWEGLHENSVHLSRKLRRILLPLYEVDDLRDAFKTLGL
- binding: binds
